From article PMC6197184, “Cyclophilin J limits inflammation through the blockage of ubiquitin chain sensing” (Nature Communications, 2018)

What was measured:
[1] = biological target: T1, Flag-TAB2 (full-length TAK1-binding protein 2) (UniProt Q9NYJ8); experiment: co-IP; 293T cells co-transfected with tagged proteins; lysates immunoprecipitated with tag antibodies and protein G beads at 4 °C overnight, washed with IP buffer (50 mM Tris-HCl pH 7.4, 150 mM NaCl, 1% Nonidet P40), immunoblot; reciprocal; competition co-IP with CYPJ overexpression
T1 sequence: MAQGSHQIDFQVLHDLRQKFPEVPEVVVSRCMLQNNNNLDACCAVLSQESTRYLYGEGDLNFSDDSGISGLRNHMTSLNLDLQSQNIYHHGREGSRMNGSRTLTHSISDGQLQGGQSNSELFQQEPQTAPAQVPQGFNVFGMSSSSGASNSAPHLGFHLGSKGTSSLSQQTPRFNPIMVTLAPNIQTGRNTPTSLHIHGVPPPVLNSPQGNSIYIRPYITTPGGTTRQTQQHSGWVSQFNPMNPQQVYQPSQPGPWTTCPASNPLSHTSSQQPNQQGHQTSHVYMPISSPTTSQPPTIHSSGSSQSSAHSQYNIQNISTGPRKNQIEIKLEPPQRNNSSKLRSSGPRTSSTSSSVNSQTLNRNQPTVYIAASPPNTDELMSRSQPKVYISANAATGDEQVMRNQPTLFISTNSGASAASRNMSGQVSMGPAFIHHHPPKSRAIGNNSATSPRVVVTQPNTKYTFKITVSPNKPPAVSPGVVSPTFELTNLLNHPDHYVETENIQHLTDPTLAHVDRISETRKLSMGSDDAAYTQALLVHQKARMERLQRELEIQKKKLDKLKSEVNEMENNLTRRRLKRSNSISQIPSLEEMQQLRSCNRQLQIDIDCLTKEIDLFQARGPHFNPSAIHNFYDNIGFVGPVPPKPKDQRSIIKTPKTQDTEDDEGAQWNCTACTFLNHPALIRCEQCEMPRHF

Flag-TAB3 = biological target: T2, Flag-TAB3 (UniProt Q8N5C8); experiment: as above
T2 sequence: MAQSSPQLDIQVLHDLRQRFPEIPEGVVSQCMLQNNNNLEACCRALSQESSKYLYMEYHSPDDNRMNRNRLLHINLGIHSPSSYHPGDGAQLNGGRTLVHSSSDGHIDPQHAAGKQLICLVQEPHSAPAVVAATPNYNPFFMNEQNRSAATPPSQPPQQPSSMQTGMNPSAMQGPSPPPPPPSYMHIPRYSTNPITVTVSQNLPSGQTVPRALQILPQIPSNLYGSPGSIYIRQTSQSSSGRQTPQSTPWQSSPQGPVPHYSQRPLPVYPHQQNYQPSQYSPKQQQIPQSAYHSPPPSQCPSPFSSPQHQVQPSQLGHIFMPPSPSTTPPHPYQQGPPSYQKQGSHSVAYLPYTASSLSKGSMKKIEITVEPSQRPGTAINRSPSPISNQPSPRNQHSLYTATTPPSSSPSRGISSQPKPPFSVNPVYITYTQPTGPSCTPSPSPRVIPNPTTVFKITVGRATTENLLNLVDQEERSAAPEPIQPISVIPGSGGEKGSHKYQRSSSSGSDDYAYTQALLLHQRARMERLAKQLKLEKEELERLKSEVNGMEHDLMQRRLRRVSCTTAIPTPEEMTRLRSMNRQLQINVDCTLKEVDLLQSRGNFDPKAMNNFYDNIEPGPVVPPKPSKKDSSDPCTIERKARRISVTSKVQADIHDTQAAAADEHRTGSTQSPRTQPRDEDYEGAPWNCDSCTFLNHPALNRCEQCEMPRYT

[2] = biological target: GST-TAB3-NZF (GST-fused NZF domain of TAB3); experiment: pull-down; GST or GST fusion proteins from E. coli on Glutathione Sepharose 4B incubated with lysates of transfected 293T cells at 4 °C overnight; washed with PBS or IP buffer; immunoblot; only the target purified
GST-TAB2 ΔNZF = experiment: as above
GST-TAB2 ΔCC&NZF = experiment: as above
[3] = biological target: GST-TAB2-NZF (GST-fused NZF domain of TAB2); experiment: as above
GST-TAB2 ΔCUE = experiment: as above
[4] = biological target: GST-fused NZF domain of NEMO; experiment: as above
Flag-TAB2 ΔNZF = experiment: co-IP; 293T cells co-transfected with tagged proteins; lysates immunoprecipitated with tag antibodies and protein G beads at 4 °C overnight, washed with IP buffer (50 mM Tris-HCl pH 7.4, 150 mM NaCl, 1% Nonidet P40), immunoblot; reciprocal; competition co-IP with CYPJ overexpression
Flag-TAB2 ΔCC&NZF = experiment: as above
Flag-TAB2 ΔCUE = experiment: as above
[5] = biological target: GST-TAB3-NZF (GST-fused NZF domain of TAB3); experiment: pull-down; E. coli-expressed GST and GST-fused NZF domains with E. coli-expressed His-CYPJ; both purified
[6] = biological target: GST-fused NZF domain of SHARPIN; experiment: as above
[7] = biological target: GST-TAB2-NZF (GST-fused NZF domain of TAB2); experiment: as above
[8] = biological target: GST-fused second NZF domain of HOIP; experiment: as above

In the case of “CYPJ-Δ3 (HA-tagged CYPJ with a deletion of fragment-3) (human) (domain or fragment)”, the binding [1] is reported as “no binding” and the binding (Flag-TAB3) is reported as “no binding”.

B1: HA-CYPJ (HA-tagged full-length cyclophilin J) (protein, UniProt Q9H2H8 1-161)
chain: MSVTLHTDVGDIKIEVFCERTPKTCENFLALCASNYYNGCIFHRNIKGFMVQTGDPTGTGRGGNSIWGKKFEDEYSEYLKHNVRGVVSMANNGPNTNGSQFFITYGKQPHLDMKYTVFGKVIDGLETLDELEKLPVNEKTYRPLNDVHIKDITIHANPFAQ
In the case of B1, the binding [2] is reported as “binds”, the binding (GST-TAB2 ΔNZF) is reported as “no binding” and the binding (GST-TAB2 ΔCC&NZF) is reported as “no binding”. For the same molecule, the binding [3] was “binds”, the binding (GST-TAB2 ΔCUE) was “binds” and the binding [4] was “no binding”. For the same molecule, the binding (Flag-TAB2 ΔNZF) was “no binding”, the binding (Flag-TAB2 ΔCC&NZF) was “no binding” and the binding (Flag-TAB2 ΔCUE) was “binds”.

B2: His-CYPJ (recombinant) (protein, UniProt Q9H2H8 1-161)
chain: MSVTLHTDVGDIKIEVFCERTPKTCENFLALCASNYYNGCIFHRNIKGFMVQTGDPTGTGRGGNSIWGKKFEDEYSEYLKHNVRGVVSMANNGPNTNGSQFFITYGKQPHLDMKYTVFGKVIDGLETLDELEKLPVNEKTYRPLNDVHIKDITIHANPFAQ
With B2 the binding [5] was “binds”, the binding [6] was “binds” and the binding [7] was “binds”. For the same molecule, the binding [8] was “binds”.

Results are given in words; binding and its absence hold for the method and conditions named. For part of these data: Binding can be weak; no strength is given. Sequences can lack the tags named with a protein. For part of these data: Binding seen in cells or lysates may run through a third protein.
